Experimental data: article PMC4811774
These are yes or no findings as the source states them, for the method shown. A result given as binding can be weak or reduced; the word gives no strength. For part of these data: In cells and extracts the contact can be indirect.

The chains behind the UniProt entries cited, without tags or fusion partners. Where a name states a change or a piece, a line headed by the entry shows the natural chain unless it says otherwise.
UniProt O81283: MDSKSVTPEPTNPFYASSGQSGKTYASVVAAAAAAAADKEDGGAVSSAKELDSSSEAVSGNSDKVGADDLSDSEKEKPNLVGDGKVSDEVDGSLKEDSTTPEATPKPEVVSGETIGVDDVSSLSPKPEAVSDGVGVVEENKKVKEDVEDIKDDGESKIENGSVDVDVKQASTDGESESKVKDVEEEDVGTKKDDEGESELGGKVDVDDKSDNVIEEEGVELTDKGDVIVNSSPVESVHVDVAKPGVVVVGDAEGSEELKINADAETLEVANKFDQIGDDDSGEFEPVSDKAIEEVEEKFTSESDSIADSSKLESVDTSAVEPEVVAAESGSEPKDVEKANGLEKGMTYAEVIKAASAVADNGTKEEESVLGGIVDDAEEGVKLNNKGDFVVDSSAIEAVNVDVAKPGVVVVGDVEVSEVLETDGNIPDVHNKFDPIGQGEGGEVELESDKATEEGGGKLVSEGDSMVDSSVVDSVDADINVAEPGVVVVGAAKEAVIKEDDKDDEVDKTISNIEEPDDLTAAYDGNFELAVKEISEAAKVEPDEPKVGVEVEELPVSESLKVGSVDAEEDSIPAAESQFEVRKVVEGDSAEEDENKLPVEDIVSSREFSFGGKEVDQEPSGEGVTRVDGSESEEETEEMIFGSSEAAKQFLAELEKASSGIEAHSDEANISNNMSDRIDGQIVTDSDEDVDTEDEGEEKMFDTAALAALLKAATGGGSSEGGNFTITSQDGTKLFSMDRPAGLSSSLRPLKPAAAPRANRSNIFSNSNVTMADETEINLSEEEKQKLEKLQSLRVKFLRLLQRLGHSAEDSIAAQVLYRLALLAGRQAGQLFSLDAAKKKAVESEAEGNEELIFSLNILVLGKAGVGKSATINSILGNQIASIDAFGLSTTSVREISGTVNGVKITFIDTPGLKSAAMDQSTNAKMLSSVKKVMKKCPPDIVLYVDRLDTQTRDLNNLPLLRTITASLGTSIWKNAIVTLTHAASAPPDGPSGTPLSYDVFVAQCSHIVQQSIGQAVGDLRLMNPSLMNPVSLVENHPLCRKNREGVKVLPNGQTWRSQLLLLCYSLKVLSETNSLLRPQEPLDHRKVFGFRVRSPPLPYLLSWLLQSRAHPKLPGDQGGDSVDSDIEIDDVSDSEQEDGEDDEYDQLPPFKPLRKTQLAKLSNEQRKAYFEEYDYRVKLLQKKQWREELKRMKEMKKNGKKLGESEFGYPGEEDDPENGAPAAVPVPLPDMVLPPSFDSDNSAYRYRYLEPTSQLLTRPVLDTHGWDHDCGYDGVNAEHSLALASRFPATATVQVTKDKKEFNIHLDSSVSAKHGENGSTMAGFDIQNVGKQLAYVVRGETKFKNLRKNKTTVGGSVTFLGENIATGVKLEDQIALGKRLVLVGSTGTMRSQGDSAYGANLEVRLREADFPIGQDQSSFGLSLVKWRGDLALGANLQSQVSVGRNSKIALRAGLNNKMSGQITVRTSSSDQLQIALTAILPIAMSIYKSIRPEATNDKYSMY
UniProt Q9STE8: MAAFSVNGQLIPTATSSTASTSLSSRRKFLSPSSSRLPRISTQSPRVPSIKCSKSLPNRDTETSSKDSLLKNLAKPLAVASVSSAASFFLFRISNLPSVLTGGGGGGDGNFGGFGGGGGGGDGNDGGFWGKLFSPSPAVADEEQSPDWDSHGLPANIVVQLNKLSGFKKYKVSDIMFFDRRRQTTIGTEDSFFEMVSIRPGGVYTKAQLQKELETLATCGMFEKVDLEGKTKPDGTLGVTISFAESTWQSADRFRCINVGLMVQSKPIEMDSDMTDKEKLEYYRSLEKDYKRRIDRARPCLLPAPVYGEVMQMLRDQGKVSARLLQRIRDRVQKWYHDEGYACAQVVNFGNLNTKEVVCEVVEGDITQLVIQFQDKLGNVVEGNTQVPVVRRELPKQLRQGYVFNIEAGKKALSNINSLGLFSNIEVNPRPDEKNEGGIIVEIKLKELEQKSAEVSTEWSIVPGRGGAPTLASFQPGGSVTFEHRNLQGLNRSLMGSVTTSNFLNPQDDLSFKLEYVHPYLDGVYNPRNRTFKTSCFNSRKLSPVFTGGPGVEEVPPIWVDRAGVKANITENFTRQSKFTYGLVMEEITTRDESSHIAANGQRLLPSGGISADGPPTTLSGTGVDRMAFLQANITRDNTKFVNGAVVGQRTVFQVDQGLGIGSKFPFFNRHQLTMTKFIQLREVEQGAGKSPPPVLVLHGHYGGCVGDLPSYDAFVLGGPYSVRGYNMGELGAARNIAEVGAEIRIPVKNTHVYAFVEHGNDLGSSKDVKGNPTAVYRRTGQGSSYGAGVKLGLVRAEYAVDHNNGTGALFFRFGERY

Experiments:
[1] = target: T1, Toc33 (Arabidopsis thaliana (endogenous in chloroplasts)) (UniProt O23680); test: co-IP; immunoaffinity chromatography of detergent-soluble chloroplast membranes from TOC75, TOC75ΔP1#2 and TOC75ΔP1-2#2 plants on anti-atToc33 Sepharose under native conditions; eluates immunoblotted
T1 sequence: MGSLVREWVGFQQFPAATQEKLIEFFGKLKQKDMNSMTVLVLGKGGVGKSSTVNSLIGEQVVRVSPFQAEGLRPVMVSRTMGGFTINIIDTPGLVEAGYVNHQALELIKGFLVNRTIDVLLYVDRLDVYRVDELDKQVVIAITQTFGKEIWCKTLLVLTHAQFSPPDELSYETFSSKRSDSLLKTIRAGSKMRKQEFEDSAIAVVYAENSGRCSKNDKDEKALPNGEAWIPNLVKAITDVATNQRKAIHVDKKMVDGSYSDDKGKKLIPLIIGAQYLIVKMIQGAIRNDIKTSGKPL

[2] = target: T1, Toc33 (Arabidopsis thaliana (endogenous in chloroplasts)); test: native gel or EMSA; 2D blue-native PAGE: chloroplast membranes solubilised in 1% decylmaltoside, 4-12% BN-PAGE at 4°C, then 5-12% SDS-PAGE and immunoblotting; co-migration
[3] = target: Toc159 (Arabidopsis thaliana (endogenous in chloroplasts)) (UniProt O81283); test: as above

Toc75ΔP1 (from UniProt Q9STE8)
binding [1]: binds
binding [2]: binds
binding [3]: binds

Toc75ΔP1-2 (from UniProt Q9STE8)
binding [1]: binds
binding [2]: binds
binding [3]: no binding
